“And” between values parts separate entries of the source, which are not always exact repeats. Equal values may be shown once. Further values from the same series stand in other lists.
System: Lmna G609G/G609G mouse
Test: Body weight of Lmna G609G/G609G mice (ratio, week 4 = 1)
Assay type: in vivo
Text: Fig. 3 In vivo favorable effect of SLC-D011. A Gross morphology of Lmna^G609G/G609G mice (10 weeks old) was ameliorated after injection with SLC-D011. At the same age, the experimental group (D011) of mice were larger than vehicle-injected control (Con) subjects regardless of gender. B, C SLC-D011 increases body weight B and extends life span C of Lmna^G609G/G609G progeria model mouse (Con: n = 8; SLC-D011: n = 8). Compared with 14.8 weeks of average (ave) life span with maximum (max) life span of 15.5 weeks, 20 mg/kg of intraperitoneal (i.p) injection (twice a week) of SLC-D011 could extend the life span upto 19 weeks (max = 21 weeks). Lmna^G609G/G609G mice were injected with SLC-D011 from age of 5-week old, *p < 0.05. D Gross morphology of SLC-D011 injected Lmna^G609G/+ mouse. […] E SLC-D011 increases body weights of Lmna^G609G/+ mice (Con: n = 10; SLC-D011: n = 11), *p < 0.05. F Favorable effect of SLC-D011 on life span of Lmna^G609G/+ mice. Compared with vehicle-injected control group (ave = 46.7 weeks and max = 48 weeks), SLC-D011 treatment obviously extended the average life span to 63 weeks (max = 64 weeks). The injection was started from 32 weeks old, **p < 0.001. “Con” means vehicle (a solvent composed of DMSO and PBS)-injected mouse group. TEXT PRINTED IN THE PICTURE: (C) D011: Kaplan-Meier survival curve in Lmna^G609G/G609G: Ave=19; Kaplan-Meier survival curve in Lmna^G609G/G609G: Max=21 | (F) D011: Kaplan-Meier survival curve in Lmna^G609G/+: Ave=63; Kaplan-Meier survival curve in Lmna^G609G/+: Max=64 DOUBTS OF THE COPYIST ABOUT THIS PICTURE: Panels C and F: the Ave/Max labels are not printed with a group name. They are assigned to D011 (solid curve) or Con (dashed curve) only by their position beside the curves. / Panel C Ave=14.8, Max=15.5 and panel F Ave=46.7, Max=48 stand beside the dashed Con curve. They are left out because Con is the control group, not a substance. / No unit is printed with the Ave/Max values. Only the axis reads Age (weeks).
Fig. 4 Oral administration of SLC-D011 suppresses premature aging features. A Gross morphology of SLC-D011-treated (D011) mice at 8 weeks old. Body size of treated mouse was apparently larger than that of the untreated control (Con) mouse. B Oral administration of SLC-D011 increases body weights of Lmna^G609G/G609G mice. Compared with untreated control group, body weight of treated mouse was increased by ~35%, *p < 0.05. C Oral administration of SLC-D011 extends the life span of Lmna^G609G/G609G mouse. SLC-D011 in monoolein-based solution was treated by oral gavage (50 mg/kg, daily) from 5 weeks old. […] E Grip test of Lmna^G609G/+ mice at 41-week-old was performed after administration of SLC-D011 for 6 weeks. The test was repeated 10 times for each mouse (n > 4), **p < 0.001. Data are presented as mean ± SD. F Electrocardiographic analysis of Lmna^G609G/+ mice (untreated: n = 4; SLC-D011: n = 4) and Lmna^+/+ mice (n = 3) after treatment with SLC-D011 for 6 weeks (unpaired t test). Heart rate is shown as beats per minute (bpm). G Dental abnormalities in Lmna^G609G/+ mice (untreated: n = 4; SLC-D011: n = 5) and Lmna^+/+ mice (n = 4). […] Lower incisors of Lmna^G609G transgenic mice grow toward the palate because of malocclusion. Oral administration of SLC-D011 for 6 weeks alleviates dental abnormalities. H Anti-aging effects of single treatment of SLC-D011 or lonafarnib were measured in HGPS patients-derived cells (AG11513, AG03199, AG11498, and AG03198, Coriell Cell Repositories). Single treatment of SLC-D011, compared to lonafarnib, reduced the expression of progerin but induced the expression of H3K9me3 and cyclin B1 in HGPS cells more effectively. HGPS patients-derived cells were treated with SLC-D011 (500 nM) or lonafarnib (500 nM) for 3 days. I Scheme of interaction between lamin A and progerin. SLC-D011 interrupts the interaction between lamin A and progerin through direct binding to the C-terminal region of progerin. […]

In the case of `CC1(C)Oc2cc3oc(=O)ccc3cc2C[C@@H]1OC/C=C/c1ccccc1` [SLC-D011], the body weight (IP injection, after week 5) is reported as 1.154 and 1.077 and 1.156, the body weight (IP injection, after week 7) is reported as 1.385 and 1.462 and 1.337 and the body weight (IP injection, after week 8) is reported as 1.538 and 1.333 and 1.357. For the same molecule, the body weight (IP injection, after week 9) was 1.462 and 1.333 and 1.317, the body weight (IP injection, after week 10) was 1.385 and 1.265 and the body weight (IP injection, after week 13) was 1.385 and 1.231 and 1.182 and 1.115. The body weight (IP injection, after week 15) was 1.231 and 1.077 and 1.083 and 1.008, the body weight (IP injection, after week 16) was 1.231 and 0.9091 and 0.972 and the body weight (IP injection, after week 17) was 1.077 and 0.9231 and 0.9091 and 0.8913. The body weight (IP injection, column after week 4) was 1.042, the body weight (IP injection, column after week 6) was 1.231 and 1.247 and the body weight (IP injection, column after week 11) was 1.462 and 1.385 and 1.273 and 1.256. The body weight (IP injection, column after week 12) was 1.385 and 1.308 and 1.174, the body weight (IP injection, column after week 14) was 1.308 and 1.154 and 1.143 and 1.067 and the body weight (IP injection, column after week 18) was 0.9231 and 0.7137. For the same molecule, the body weight (IP injection, column after week 19) was 0.9231 and 0.6058, the body weight (IP injection, week 5) was 1.077 and 1.104 and the body weight (IP injection, week 6) was 1.231 and 1.217. For the same molecule, the body weight (IP injection, week 7) was 1.308 (2×) and 1.385, the body weight (IP injection, week 8) was 1.538 and 1.367 and the body weight (IP injection, week 10) was 1.462 and 1.333 and 1.307. For the same molecule, the body weight (IP injection, week 11) was 1.462 and 1.273 and 1.276, the body weight (IP injection, week 12) was 1.385 and 1.273 and 1.206 and the body weight (IP injection, week 13) was 1.308 and 1.146. The body weight (IP injection, week 15) was 1.231 and 1.154 and 1.143 and 1.048, the body weight (IP injection, week 16) was 1.154 and 1.077 and 1.083 and 0.895 and the body weight (IP injection, week 17) was 1.154 and 0.9231 and 0.9091 and 1 and 0.9262. For the same molecule, the body weight (IP injection, week 18) was 1.077 and 0.8462 and 0.9091 and 0.7434, the body weight (IP injection, week 19) was 0.9231 and 0.7692 and 0.75 and 0.6551 and the body weight (IP injection, week 20) was 0.8462 and 0.75 and 0.5321. The body weight (oral administration, after week 8) was 1.273 and 1.455 and 1.385 and 1.417 and 1.545 and 1.636 and 1.444, the body weight (oral administration, after week 10) was 1.182 and 1.455 and 1.385 and 1.417 and 1.636 and 1.444 and the body weight (oral administration, after week 16) was 1.182 and 1.364 and 1.077 and 1.333 and 1.455 and 1.263 and 1.417 and 1.318. For the same molecule, the body weight (oral administration, column after week 4) was 1.091 and 1.077 and 1.083 and 1.182 and 1.098, the body weight (oral administration, column after week 6) was 1.182 and 1.273 and 1.154 and 1.25 and 1.364 and 1.455 and 1.263 and the body weight (oral administration, column after week 12) was 1.273 and 1.455 and 1.385 and 1.417 and 1.545 and 1.432. For the same molecule, the body weight (oral administration, column after week 14) was 1.273 and 1.455 and 1.308 and 1.333 and 1.263 and 1.417 and 1.37, the body weight (oral administration, column after week 18) was 1 and 1.273 and 1.25 and 1.364 and 1.091 and 1.333 and 1.243 and the body weight (oral administration, column after week 20) was 0.9091 and 1.182 and 1.091 and 1.167 and 1.273 and 1 and 1.146. The body weight (oral administration, column after week 22) was 0.8182 and 1 and 0.9091 and 1.083 and 1.091 and 1.182 and 1.01, the body weight (oral administration, column after week 24) was 0.9167 and 0.8182 and 1.091 and 0.6656 and the body weight (oral administration, column after week 25) was 0.75 and 0.8182 and 0.5795. For the same molecule, the body weight (oral administration, week 6) was 1.091 and 1.182 and 1.077 and 1.167 and 1.273 and 1.364 and 1.176, the body weight (oral administration, week 8) was 1.182 and 1.364 and 1.231 and 1.333 and 1.455 and 1.545 and 1.338 and the body weight (oral administration, week 10) was 1.182 and 1.455 and 1.308 and 1.5 and 1.545 and 1.727 and 1.435. For the same molecule, the body weight (oral administration, week 12) was 1.273 and 1.455 and 1.308 and 1.417 and 1.636 and 1.436, the body weight (oral administration, week 14) was 1.273 and 1.545 and 1.308 and 1.417 and 1.455 and 1.424 and the body weight (oral administration, week 16) was 1.182 and 1.364 and 1.231 and 1.333 and 1.455 and 1.263 and 1.417 and 1.337. The body weight (oral administration, week 18) was 1 and 1.364 and 1.077 and 1.333 and 1.182 and 1.417 and 1.262, the body weight (oral administration, week 20) was 0.9091 and 1.273 and 1.091 and 1.25 and 1.179 and the body weight (oral administration, week 22) was 0.9091 and 1.182 and 0.9167 and 1.167 and 1.091 and 1 and 1.273 and 1.09. The body weight (oral administration, week 24) was 0.9091 and 0.8462 and 1.083 and 0.9167 and 1.182 and 0.8182 and 0.8671 and the body weight (oral administration, week 25) was 0.8333 and 0.75 and 0.8182 and 0.6439.
